# Results: US20080081075A1, “Multifunctional mixed micelle of graft and block copolymers and preparation thereof” (National Tsing Hua University, priority 2006, published 2008)
# Test system: HeLa cells
# Assay: Cytotoxicity evaluation, MTT assay
# Assay type: cell-based
# Settings: 72 h incubation
structure (smiles),measurement,value
"COc1cccc2c1C(=O)c1c(O)c3c(c(O)c1C2=O)C[C@@](O)(C(=O)CO)C[C@@H]3O[C@H]1C[C@H](N)[C@H](O)[C@H](C)O1 [free Dox, doxorubicin]",inhibition concentration (IC50),1.2 µg/mL
